PMC12474298
Results are given in words; binding and its absence hold for the method and conditions named.

Amino acid sequences for entries named in this document (tags omitted).
UniProt P70168: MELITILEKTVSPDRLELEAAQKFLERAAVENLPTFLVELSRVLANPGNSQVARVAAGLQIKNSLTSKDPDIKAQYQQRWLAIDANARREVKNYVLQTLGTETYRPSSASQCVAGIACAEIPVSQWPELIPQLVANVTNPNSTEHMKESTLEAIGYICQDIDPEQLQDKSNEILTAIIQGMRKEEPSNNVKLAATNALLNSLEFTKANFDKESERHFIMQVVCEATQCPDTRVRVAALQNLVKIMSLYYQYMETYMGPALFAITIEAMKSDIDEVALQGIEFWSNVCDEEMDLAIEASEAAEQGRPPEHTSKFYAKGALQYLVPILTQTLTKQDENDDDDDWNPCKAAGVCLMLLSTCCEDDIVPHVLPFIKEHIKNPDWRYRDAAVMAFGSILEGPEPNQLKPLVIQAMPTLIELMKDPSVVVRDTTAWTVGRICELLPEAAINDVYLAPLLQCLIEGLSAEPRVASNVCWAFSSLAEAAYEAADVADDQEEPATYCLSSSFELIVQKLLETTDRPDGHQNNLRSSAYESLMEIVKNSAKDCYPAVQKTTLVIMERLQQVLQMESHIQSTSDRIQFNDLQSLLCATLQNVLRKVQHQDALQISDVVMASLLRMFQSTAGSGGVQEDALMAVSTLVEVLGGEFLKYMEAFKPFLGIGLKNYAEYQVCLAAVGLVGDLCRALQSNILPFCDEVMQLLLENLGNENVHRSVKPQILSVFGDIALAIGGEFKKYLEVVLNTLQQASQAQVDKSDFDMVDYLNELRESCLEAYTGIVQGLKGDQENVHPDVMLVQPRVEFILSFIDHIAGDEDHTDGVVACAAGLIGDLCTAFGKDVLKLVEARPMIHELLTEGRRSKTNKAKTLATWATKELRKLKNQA

Target: T1, HaHV1 UL36h NLS peptide (residues 1491-1500), FITC/Ahx-labelled (haliotid herpesvirus 1 (HaHV1))
T1 sequence (peptide): ETKKRRRILE
Assay: native gel or EMSA; both purified

“mouse importin β1 (IMPβ1) (from UniProt P70168 1-876)” was tested, and the binding was “no binding (tested: 20 μM (10 μM peptide))”.
